Results as given in patent US20060211724A1, “Hiv integrase inhibitors” (priority 2003, published 2006).
Some of these results come from one statement about several compounds together.

These compounds were tested on HIV replication cycle in MT4-LTR-EGFP cells (assay: Time of addition assay). Conditions: high MOI; added from 30 min post infection; p24 and fluorescence 24 hours after infection.
Assay type: cell-based

Row | SMILES | score in time-of-addition experiment (step in HIV replication cycle in which compound is active)
1 | O=C1c2c(c(O)c3nccnc3c2O)C(=O)N1CCN1CCOCC1 [Compound 28, 5,9-Dihydroxy-7-(2-morpholine-4-yl-ethyl)-pyrrolo[3,4-g]quinoxaline-6,8-dione] | integrase
2 | O=C1c2c(c(O)c3nccnc3c2O)C(=O)N1Cc1ccncc1 [Compound 29, 5,9-Dihydroxy-7-pyridin-4-ylmethyl-pyrrolo[3,4-g]quinoxaline-6,8-dione] | integrase
3 | Cc1ccc2c(O)c3c(c(O)c2n1)C(=O)N(c1ccccc1)C3=O [Compound 30, 5,9-Dihydroxy-2-methyl-7-phenyl-pyrrolo[3,4-g]quinoline-6,8-dione] | integrase
4 | O=C1c2c(c(OCc3ccccc3)c3nccnc3c2O)C(=O)N1Cc1ccc2c(c1)OCO2 [Compound 31, 7-Benzo[1,3]dioxol-5-ylmethyl-5-benzyloxy-9-hydroxy-pyrrolo[3,4-g]quinoxaline-6,8-dione] | integrase
5 | O=C1c2c(c(O)c3nccnc3c2O)C(=O)N1C1CCCC1 [Compound 32, 7-Cyclopentyl-5,9-dihydroxy-pyrrolo[3,4-g]quinoxaline-6,8-dione] | integrase
6 | O=C1c2c(c(O)c3nccnc3c2O)C(=O)N1c1ccc(F)cc1 [Compound 33, 7-(4-Fluoro-phenyl)-5,9-dihydroxy-pyrrolo[3,4-g]quinoxaline-6,8-dione] | integrase
7 | CS(=O)(=O)c1ccc(CN2C(=O)c3c(c(O)c4nccnc4c3O)C2=O)cc1 [Compound 34, 5,9-Dihydroxy-7-(4-methanesulfonyl-benzyl)-pyrrolo[3,4-g]quinoxaline-6,8-dione] | integrase
8 | O=C1c2c(c(O)c3nccnc3c2O)C(=O)N1c1ccccc1Br [Compound 35, 7-(2-Bromo-phenyl)-5,9-dihydroxy-pyrrolo[3,4-g]quinoxaline-6,8-dione] | integrase
9 | C#CCOc1c2c(c(O)c3nccnc13)C(=O)N(Cc1ccc3c(c1)OCO3)C2=O [Compound 36, 7-Benzo[1,3]dioxol-5-ylmethyl-5-hydroxy-9-prop-2-ynyloxy-pyrrolo[3,4-g]quinoxaline-6,8-dione] | integrase
10 | CC(C)CCOc1c2c(c(O)c3nccnc13)C(=O)N(Cc1ccc3c(c1)OCO3)C2=O [Compound 37, 7-Benzo[1,3]dioxol-5-ylmethyl-5-hydroxy-9-(3-methyl-butoxy)-pyrrolo[3,4-g]quinoxaline-6,8-dione] | integrase
11 | O=C1c2c(c(O)c3c(ncn3Cc3ccccc3)c2O)C(=O)N1Cc1ccc2c(c1)OCO2 [Compound 38, 6-Benzo[1,3]dioxol-5-ylmethyl-1-benzyl-4,8-dihydroxy-1H-1,3,6-triaza-s-indacene-5,7-dione] | integrase
12 | O=C1c2c(c(O)c3[nH]cnc3c2O)C(=O)N1Cc1ccc2c(c1)OCO2 [Compound 39, 6-Benzo[1,3]dioxol-5-ylmethyl-4,8-dihydroxy-1H-1,3,6-triaza-s-indacene-5,7-dione] | integrase
13 | CC(c1ccccc1)N1C(=O)c2c(c(O)c3c(ncn3Cc3ccccc3)c2O)C1=O (centres unmarked) [Compound 40, 1-Benzyl-4,8-dihydroxy-6-(1-phenyl-ethyl)-1H-1,3,6-triaza-s-indacene-5,7-dione] | integrase
14 | O=C1c2c(c(OCCCc3ccccc3)c3nccnc3c2O)C(=O)N1Cc1ccc2c(c1)OCO2 [Compound 41, 7-Benzo[1,3]dioxol-5-ylmethyl-5-hydroxy-9-(3-phenyl-propoxy)-pyrrolo[3,4-g]quinoxaline-6,8-dione] | integrase
